Data on two substances can be found in publication PMC10761945.

By UniProt entry, the sequences of proteins in these tests, tags left out.
UniProt Q01628: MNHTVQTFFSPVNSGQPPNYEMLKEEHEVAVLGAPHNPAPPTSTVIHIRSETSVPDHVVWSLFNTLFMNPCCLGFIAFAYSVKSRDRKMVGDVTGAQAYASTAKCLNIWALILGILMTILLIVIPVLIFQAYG
UniProt P42224: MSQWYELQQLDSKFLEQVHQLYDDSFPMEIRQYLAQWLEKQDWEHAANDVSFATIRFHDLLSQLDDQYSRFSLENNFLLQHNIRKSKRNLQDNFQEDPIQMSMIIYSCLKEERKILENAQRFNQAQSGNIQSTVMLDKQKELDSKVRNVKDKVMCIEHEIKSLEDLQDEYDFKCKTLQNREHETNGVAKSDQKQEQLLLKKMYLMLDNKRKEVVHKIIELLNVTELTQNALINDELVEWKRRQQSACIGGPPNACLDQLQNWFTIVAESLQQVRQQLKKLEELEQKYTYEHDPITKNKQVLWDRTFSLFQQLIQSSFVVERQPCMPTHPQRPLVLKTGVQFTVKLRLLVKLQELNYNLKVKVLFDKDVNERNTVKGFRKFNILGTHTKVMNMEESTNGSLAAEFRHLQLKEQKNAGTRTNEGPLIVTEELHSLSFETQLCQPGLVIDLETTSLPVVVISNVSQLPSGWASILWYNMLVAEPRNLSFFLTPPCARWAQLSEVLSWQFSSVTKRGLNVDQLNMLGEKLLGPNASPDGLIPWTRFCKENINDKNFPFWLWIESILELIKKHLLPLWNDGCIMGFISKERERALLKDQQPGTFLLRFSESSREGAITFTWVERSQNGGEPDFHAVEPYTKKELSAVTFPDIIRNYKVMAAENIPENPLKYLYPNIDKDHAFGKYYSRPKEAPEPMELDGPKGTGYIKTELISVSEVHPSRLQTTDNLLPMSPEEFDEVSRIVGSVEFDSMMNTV

The target in one experiment is Myc-tagged IFITM3 (UniProt Q01628). Nature of the experiment: co-IP; IFITM3 and STAT1 in HEK293T cells (Supplementary Fig. 4b, c); bait and antibodies not told in the text shown.
The next experiment concerns the target IFITM3 in Hela cells (UniProt Q01628). Put plainly: co-IP; IFITM3 and STAT1 in Hela cells (Supplementary Fig. 4b, c); bait and antibodies not told in the text shown.

Results are given in words; binding and its absence hold for the method and conditions named. Binding seen in cells or lysates may run through a third protein. Some binding calls cover weakened binding; strength is not graded here.

As for “HA-tagged STAT1 (from UniProt P42224 1-750)”, in the experiment with Myc-tagged IFITM3, the binding entry is listed as “binds”.
For “STAT1 in Hela cells (from UniProt P42224 1-750)”, the binding entry with IFITM3 in Hela cells was “binds”.
